Assay [1] has as its target T1, HA-SpvB (S. Typhimurium strain SL1344) (UniProt P21454).
T1 sequence: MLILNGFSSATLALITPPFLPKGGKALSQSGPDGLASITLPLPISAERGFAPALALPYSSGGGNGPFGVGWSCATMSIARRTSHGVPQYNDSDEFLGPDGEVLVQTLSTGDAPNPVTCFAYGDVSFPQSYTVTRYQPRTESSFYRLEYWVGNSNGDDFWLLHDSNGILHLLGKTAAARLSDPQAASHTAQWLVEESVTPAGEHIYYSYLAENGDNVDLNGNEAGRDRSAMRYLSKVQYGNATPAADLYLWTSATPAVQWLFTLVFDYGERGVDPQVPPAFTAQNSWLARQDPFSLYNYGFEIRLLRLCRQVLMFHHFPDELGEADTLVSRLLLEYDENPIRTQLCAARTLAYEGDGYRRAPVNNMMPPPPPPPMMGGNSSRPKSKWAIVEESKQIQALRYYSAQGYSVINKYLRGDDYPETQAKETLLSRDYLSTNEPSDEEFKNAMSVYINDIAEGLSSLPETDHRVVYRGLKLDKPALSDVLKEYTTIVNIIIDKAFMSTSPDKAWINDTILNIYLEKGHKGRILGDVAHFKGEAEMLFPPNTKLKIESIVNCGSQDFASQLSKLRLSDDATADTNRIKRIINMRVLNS
The assay can be described thus: co-IP; FLAG-tagged AP-1 subunits or CHC cotransfected with or without HA-SpvB in 293T cells; lysates precipitated with beads coated with HA antibody; immunoblot. In general terms: In western blotting, separated proteins are transferred to a membrane and probed.

In assay [2] the target is T2, FLAG-tagged SopD2 (S. Typhimurium strain SL1344) (UniProt Q8ZQC8).
T2 sequence: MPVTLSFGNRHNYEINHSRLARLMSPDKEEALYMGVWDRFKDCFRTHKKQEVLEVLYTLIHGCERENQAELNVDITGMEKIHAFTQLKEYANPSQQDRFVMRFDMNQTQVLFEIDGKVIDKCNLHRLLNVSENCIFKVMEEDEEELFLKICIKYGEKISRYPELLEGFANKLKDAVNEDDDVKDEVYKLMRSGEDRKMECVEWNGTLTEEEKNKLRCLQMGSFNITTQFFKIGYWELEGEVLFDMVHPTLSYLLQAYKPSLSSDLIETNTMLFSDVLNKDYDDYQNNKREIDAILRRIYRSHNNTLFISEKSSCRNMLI
The assay can be described thus: co-IP; 293T cells transfected with FLAG-tagged SpvB, truncation mutants or SopD2; anti-FLAG immunoprecipitates probed with antibodies against endogenous CHC and AP-1γ.

The target of assay [3] is FLAG-tagged AP-1β (human). The assay can be described thus: co-IP; GFP-SpvB or GFP-tagged truncation mutants cotransfected with FLAG-tagged AP-1 subunits or CHC in 293T cells; lysates precipitated with beads coated with FLAG antibody; immunoblot.
Assay [4] has as its target FLAG-tagged AP-1γ (human). The description is as above.
For assay [5], the target named is FLAG-tagged AP-1μ (human). The assay is described as above.
Assay [6] deals with FLAG-tagged AP-1σ (human). The description is as above.

Data on 6 molecules can be found in paper PMC10696399.

These are yes or no findings as the source states them, for the method shown. In cells and extracts the contact can be indirect. For part of these data: Binding calls can cover weak binding; strength is not graded here. Where a sequence is shown, tags or fusion partners need not be part of it.

Take FLAG-tagged AP-1μ (human): the binding entry in assay [1] was “binds”. For the molecule FLAG-tagged AP-1γ (human), the binding entry in assay [1] is “binds”.

In the case of “AP-1γ (endogenous) (human (endogenous in HEK293T))”, the binding entry in assay [2] was “no binding”.

In the case of FLAG-tagged AP-1σ (human), the binding entry in assay [1] is listed as “binds”.

Regarding FLAG-tagged AP-1β (human), the binding entry in assay [1] is listed as “binds”.

B1: GFP-SpvB (protein, UniProt P21454 1-591)
chain: MLILNGFSSATLALITPPFLPKGGKALSQSGPDGLASITLPLPISAERGFAPALALPYSSGGGNGPFGVGWSCATMSIARRTSHGVPQYNDSDEFLGPDGEVLVQTLSTGDAPNPVTCFAYGDVSFPQSYTVTRYQPRTESSFYRLEYWVGNSNGDDFWLLHDSNGILHLLGKTAAARLSDPQAASHTAQWLVEESVTPAGEHIYYSYLAENGDNVDLNGNEAGRDRSAMRYLSKVQYGNATPAADLYLWTSATPAVQWLFTLVFDYGERGVDPQVPPAFTAQNSWLARQDPFSLYNYGFEIRLLRLCRQVLMFHHFPDELGEADTLVSRLLLEYDENPIRTQLCAARTLAYEGDGYRRAPVNNMMPPPPPPPMMGGNSSRPKSKWAIVEESKQIQALRYYSAQGYSVINKYLRGDDYPETQAKETLLSRDYLSTNEPSDEEFKNAMSVYINDIAEGLSSLPETDHRVVYRGLKLDKPALSDVLKEYTTIVNIIIDKAFMSTSPDKAWINDTILNIYLEKGHKGRILGDVAHFKGEAEMLFPPNTKLKIESIVNCGSQDFASQLSKLRLSDDATADTNRIKRIINMRVLNS
In the case of B1, the binding result in assay [3], in assay [4], in assay [5] and in assay [6] was “binds” each time.
